{
  "source": "PubChem BioAssay AID1347076",
  "about": "(National Center for Advancing Translational Sciences (NCATS), 2019)",
  "note": "Out of some 400,000 compounds screened, about 13,000 (3.2%) were called active. Inconclusive means that the source gave no clear call. Such entries were picked first, then a sample of the others. Calls come from the whole dose curve; as a rule, active = well fitted cell-killing curve with a large enough effect; inconclusive = small, poorly fitted or top-dose-only effect, or effect the other way; inactive = flat fitted curve, though single readings scatter. Where the call is inconclusive, the potency comes from a doubtful curve fit. % is set by controls: 0 for no effect and ±100 for the full control effect; potency is the fitted concentration of half-maximal effect.",
  "data": [
    {"assay": "qHTS assay for MDR1-selective chemotherapeutics: Primary screen using the drug-selected MDR subline cells KB-V1; note: nearly all actives have a fitted effect of over 60% in size", "conditions": "KB-V1 MDR cells viability, CellTiter-Glo, 72 h; activity change, negative = cytotoxicity: at 46.1 µM (top of the series)", "summary_of_the_method": "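Readout: CellTiter-Glo luminescence, 10 min after addition. Cells: KB-V1 MDR subline, 72 h at 37 degrees C with compound. Analysis: corrected, normalized data fitted to concentration-effect curves.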", "values": [
      {"smiles": "O=Cc1cn(CC(=O)Nc2ccc(F)cc2)c2ccccc12", "Potency": "inconclusive: 29.1 µM [cytotoxic, single point]"},
      {"smiles": "COc1cc(/C=N\\NC(=O)c2ccccc2F)ccc1Oc1ccc([N+](=O)[O-])cn1", "Potency": "active: 7.31 µM"},
      {"smiles": "COc1ccc(S(=O)(=O)NCC2CCC(C(=O)NCCC(C)C)CC2)cc1", "note": "(stereo unspecified)", "Potency": "inconclusive: 20.6 µM [cytotoxic, single point]"},
      {"smiles": "CC(C)(C)C1CCc2c(sc(NC(=O)Cn3nnc(-c4ccccc4F)n3)c2C#N)C1", "note": "(stereo unspecified)", "Potency": "inconclusive: 18.4 µM [rising, single point]"},
      {"smiles": "CC(C)OC(=O)C(CC(=O)O)N1CCOCC1", "note": "(stereo unspecified)", "Potency": "inconclusive: 18.4 µM [rising, partial curve, poor fit]"},
      {"smiles": "CC(Oc1ccc(F)cc1)C(=O)Nc1cc(Cl)ccc1-n1cncn1", "note": "(stereo unspecified)", "activity change, negative = cytotoxicity": "inactive: 2.74%"},
      {"smiles": "COC(=O)C1=C(C)NC(C)=C([N+](=O)[O-])[C@H]1c1ccccc1C(F)(F)F", "activity change, negative = cytotoxicity": "inactive: -8.4%"},
      {"smiles": "CC(NC(=O)CN1C(=O)NC(Cc2ccccc2)(Cc2ccccc2)C1=O)C12CC3CC(CC(C3)C1)C2", "note": "(stereo unspecified)", "Potency": "inconclusive: 23.1 µM [cytotoxic, partial curve, poor fit]"},
      {"smiles": "Cc1cc(C(=O)NNC(=O)CCC2CCCCC2)c(C)o1", "Potency": "inconclusive: 23.1 µM [rising, partial curve]"},
      {"smiles": "Cc1onc(-c2ccccc2Cl)c1C(=O)Oc1cc(F)cc(F)c1", "activity change, negative = cytotoxicity": "inactive: -19.5%"},
      {"smiles": "CN(C(=O)c1cccc(NC(=O)Cc2ccc([N+](=O)[O-])cc2)c1)C1CC1", "activity change, negative = cytotoxicity": "inactive: -2.42%"},
      {"smiles": "O=C(C1COc2ccccc2O1)N1CCN(c2nc3ccccc3s2)CC1", "note": "(stereo unspecified)", "Potency": "inconclusive: 29.1 µM [cytotoxic, single point]"},
      {"smiles": "Cn1c(C(=O)NCc2cccnc2)cc2sc(Cl)cc21", "Potency": "inconclusive: 22.4 µM [cytotoxic, single point]"},
      {"smiles": "Cc1ccc(S(=O)(=O)NC(C)CCc2ccccc2)cc1C(N)=O", "note": "(stereo unspecified)", "Potency": "inconclusive: 16.4 µM [cytotoxic, partial curve, poor fit]"},
      {"smiles": "COc1ccccc1N1CCN(C(C)C(=O)Nc2ccc(S(=O)(=O)N3CCOCC3)cc2)CC1", "note": "(stereo unspecified)", "Potency": "inconclusive: 8.2 µM [cytotoxic, partial curve]"},
      {"smiles": "Cc1ccccc1NC(=O)C(C)c1cccc(C(=O)c2ccccc2)c1", "note": "(stereo unspecified)", "Potency": "inconclusive: 16.4 µM [cytotoxic, single point]"},
      {"smiles": "Cc1cc(NS(=O)(=O)c2ccc(NC(=O)c3cc4c(=O)n5ccccc5nc4s3)cc2)nc(C)n1", "Potency": "inconclusive: 18.4 µM [rising, single point]"},
      {"smiles": "CCCCn1c(N)c(N(CCOC)C(=O)c2cc3ccccc3cc2OC)c(=O)[nH]c1=O", "Potency": "inconclusive: 29.1 µM [rising, single point]"},
      {"smiles": "Cc1ccc(C(=O)N2c3ccccc3OCC2C)cc1", "note": "(stereo unspecified)", "activity change, negative = cytotoxicity": "inactive: 15.7%"},
      {"smiles": "CC(NC(=O)CSc1n[nH]c(N)n1)c1ccccc1", "note": "(stereo unspecified)", "Potency": "inconclusive: 25.9 µM [rising, single point]"},
      {"smiles": "CCOC(=O)N1CCN(C(=O)COc2ccc3ccccc3c2Br)CC1", "activity change, negative = cytotoxicity": "inconclusive: 0%"},
      {"smiles": "C#Cc1ccc([C@@H]2C=C(C(=O)NCc3nc4ccccc4[nH]3)O[C@H](OCC)[C@H]2CCCO)cc1", "Potency": "inconclusive: 0.0461 µM [rising, full curve]"},
      {"smiles": "CCOC(=O)c1sc2ccc(S(=O)(=O)N3CCCCC3)cc2c1N", "Potency": "inconclusive: 20.6 µM [cytotoxic, partial curve]"},
      {"smiles": "O=C(/C=C/c1ccc2c(c1)OCO2)NCc1cn2cc(Cl)ccc2n1", "Potency": "inconclusive: 20.6 µM [cytotoxic, single point]"},
      {"smiles": "Cc1ccc(CCNS(=O)(=O)c2ccc3c(c2)N(C)CCO3)cc1", "Potency": "inconclusive: 5.8 µM [rising, full curve, poor fit]"},
      {"smiles": "Cc1ccc2ncnc(Nc3ccccc3)c2c1", "Potency": "inconclusive: 29.1 µM [cytotoxic, single point]"},
      {"smiles": "O=C(Nc1ccc(O)cc1C(=O)O)c1ccc(NC(=O)c2ccco2)cc1", "Potency": "inconclusive: 25.9 µM [rising, single point]"},
      {"smiles": "CN(Cc1ccccc1O)CC1CCCN(CCc2ccc(Cl)cc2)C1", "note": "(stereo unspecified)", "Potency": "inconclusive: 2.59 µM [cytotoxic, full curve]"},
      {"smiles": "c1ccc(-c2ccc(-n3ccnc3)cc2)cc1", "Potency": "inconclusive: 29.1 µM [cytotoxic, single point]"},
      {"smiles": "CCN(CC)S(=O)(=O)c1ccc2oc(C(=O)NCC3COc4ccccc4O3)c(C)c2c1", "note": "(stereo unspecified)", "Potency": "inconclusive: 14.6 µM [cytotoxic, partial curve]"},
      {"smiles": "COC(=O)C1CCC(=O)N1C(c1ccc(OC)cc1)c1cc(OC)c(OC)c(OC)c1", "note": "(stereo unspecified)", "Potency": "active: 7.31 µM"},
      {"smiles": "COc1ccc(N(CC(=O)NCCSCc2c(F)cccc2Cl)S(C)(=O)=O)cc1OC", "Potency": "active: 8.2 µM"},
      {"smiles": "COc1cc(NS(=O)(=O)c2cc(C)ccc2OC)c(OC)cc1Cl", "Potency": "inconclusive: 29.1 µM [cytotoxic, single point]"},
      {"smiles": "CCOC(=O)C1=C[C@@H](C(C)(C)C)N(S(=O)(=O)c2ccc(C)cc2)[C@H]1c1ccc(F)cc1", "Potency": "inconclusive: 29.1 µM [cytotoxic, partial curve, poor fit]"},
      {"smiles": "CCn1c2c(c3cc(Br)ccc31)CCC/C2=N\\O", "Potency": "inconclusive: 11.2 µM [cytotoxic, partial curve, poor fit]"},
      {"smiles": "CN(CC(=O)Nc1ccc(Cl)c(C(F)(F)F)c1)C(=O)c1ccc(S(=O)(=O)N2CCOCC2)cc1", "Potency": "inconclusive: 29.1 µM [cytotoxic, single point]"},
      {"smiles": "Cc1ccc(CNC(=O)COC(=O)c2cc(=O)[nH]c3ccccc23)cc1", "Potency": "inconclusive: 9.2 µM [rising, partial curve, poor fit]"},
      {"smiles": "CC(C)c1ccc(C2/C(=C(/O)c3ccc(F)cc3)C(=O)C(=O)N2CCCN2CCOCC2)cc1", "note": "(stereo unspecified)", "Potency": "inconclusive: 0.0052 µM [cytotoxic, full curve, poor fit]"},
      {"smiles": "Cc1cccc(CSc2ncnc3c2cnn3Cc2ccccc2)c1", "Potency": "active: 14.6 µM"},
      {"smiles": "Cc1ccc(S(=O)(=O)N2CCN(C(=O)CSc3ncn[nH]3)CC2)c(C)c1", "activity change, negative = cytotoxicity": "inactive: -15.9%"},
      {"smiles": "Cc1nnc(NCc2ccccc2)c2c1nnn2Cc1ccccc1Cl", "activity change, negative = cytotoxicity": "inactive: 0%"},
      {"smiles": "CC(=O)c1c(C)oc2ccc(NS(=O)(=O)c3ccc(F)cc3C)cc12", "Potency": "active: 10.3 µM"},
      {"smiles": "Cc1noc(C)c1C(=O)N1CCC1(C)C(=O)NS(=O)(=O)c1cccc(F)c1", "note": "(stereo unspecified)", "activity change, negative = cytotoxicity": "inactive: 2.51%"},
      {"smiles": "C=C(CC1([C@@H](NP(=O)(c2ccccc2)c2ccccc2)[C@H]2C[C@@H]2CCCC)CC1)c1ccccc1", "Potency": "inconclusive: 23.1 µM [cytotoxic, single point]"},
      {"smiles": "CC(C)(Oc1ccc(Cl)cc1)C(=O)NC1=NN(c2ccccc2)C(=O)C1", "Potency": "inconclusive: 16.4 µM [cytotoxic, partial curve]"},
      {"smiles": "CC1(C)C[C@@H](O)[C@]2(C)CC[C@]3(C)C(=CCC4[C@@]5(C)CC[C@H](O)[C@](C)(CO)C5CC[C@]43C)[C@@H]2C1", "note": "(stereo partly specified)", "activity change, negative = cytotoxicity": "inactive: -2.82%"},
      {"smiles": "CCc1ccc2nc(N(CCCN(C)C)C(=O)c3ccc(S(=O)(=O)N4CCCc5ccccc54)cc3)sc2c1", "Potency": "active: 9.2 µM"},
      {"smiles": "C(=C\\c1ccccc1)/CNn1cnnc1", "Potency": "inconclusive: 11.6 µM [rising, single point]"},
      {"smiles": "Cc1ccccc1C(=O)Nc1ccc(-c2nc3ccc(C(=O)c4ccccc4)cc3[nH]2)cc1", "Potency": "inconclusive: 23.1 µM [cytotoxic, single point]"},
      {"smiles": "COc1ccccc1C(NC(=O)C1CCN(CCOc2ccc(Cl)cc2)CC1)c1ccccn1", "note": "(stereo unspecified)", "activity change, negative = cytotoxicity": "inactive: 1.06%"},
      {"smiles": "CN(C)c1ccc(NC(=O)c2sc(SCC(=O)Nc3nccs3)nc2N)cc1", "Potency": "inconclusive: 16.4 µM [cytotoxic, single point]"},
      {"smiles": "CCOc1cc(/C=C\\[N+](=O)[O-])ccc1OCC(=O)N1CCOCC1", "Potency": "inconclusive: 29.1 µM [cytotoxic, single point]"},
      {"smiles": "Cc1cc2oc(C(=O)Nc3c(C(=O)Nc4ccccc4)oc4ccccc34)cc(=O)c2cc1C", "activity change, negative = cytotoxicity": "inactive: -11.1%"},
      {"smiles": "O=C(NNc1nc2ccccc2s1)c1ccccc1F", "Potency": "inconclusive: 18.4 µM [cytotoxic, single point]"},
      {"smiles": "Cc1ccc(NC(=O)CSCC(=O)Nc2cc(C(F)(F)F)ccc2N2CCOCC2)cc1", "Potency": "inconclusive: 23.1 µM [cytotoxic, partial curve, poor fit]"},
      {"smiles": "Cc1c(Cl)cccc1N1C(=O)CC(Sc2ccccc2N)C1=O", "note": "(stereo unspecified)", "Potency": "inconclusive: 5.8 µM [cytotoxic, full curve, poor fit]"},
      {"smiles": "O=[N+]([O-])c1cc([N+](=O)[O-])c(Oc2cccnc2Br)cc1NN1CCCCC1", "activity change, negative = cytotoxicity": "inactive: -2.08%"},
      {"smiles": "COc1ccc(-c2cc(-c3cc(C)ccc3O)[nH]n2)cc1", "Potency": "inconclusive: 18.4 µM [cytotoxic, single point]"},
      {"smiles": "Cc1ccc(N2CCN(CC3CC=CCC3)CC2)cc1", "note": "(stereo unspecified)", "Potency": "inconclusive: 20.6 µM [cytotoxic, single point]"},
      {"smiles": "COc1ccccc1C(=O)NNC(=O)CN(C)S(=O)(=O)c1ccc(Cl)cc1", "Potency": "inconclusive: 29.1 µM [cytotoxic, single point]"},
      {"smiles": "O=C(NNc1nc2ccc(Cl)cc2s1)c1cc(-c2cccs2)nc2ccccc12", "Potency": "inconclusive: 14.6 µM [cytotoxic, single point]"},
      {"smiles": "COc1ccc(C(=O)NCc2cccnc2)cc1OC", "activity change, negative = cytotoxicity": "inactive: -18.6%"},
      {"smiles": "CCc1cc(C(=O)Nc2cc(S(=O)(=O)N(C)C)ccc2C)sc1C", "Potency": "active: 9.2 µM"},
      {"smiles": "COc1ccc(N)c2c1C(=O)c1ccccc1C2=O", "Potency": "inconclusive: 13 µM [cytotoxic, single point]"},
      {"smiles": "COc1ccc(C)cc1S(=O)(=O)N(CC(=O)Nc1cccc([N+](=O)[O-])c1)c1ccc(C)c(C)c1", "Potency": "inconclusive: 2.59 µM [cytotoxic, full curve, poor fit]"},
      {"smiles": "O=C(Nc1nc(-c2ccccc2)cs1)c1ccccc1NS(=O)(=O)c1ccc(F)cc1", "Potency": "active: 16.4 µM"}
    ]}
  ]
}
